From patent US12576154B2, “Conjugates of PSMA-binding moieties with cytotoxic agents” (PHILOCHEM AG, priority 2022, dated 2026)
Some results were stated once for a whole list of compounds, not compound by compound.

System: HT1080.hPSMA tumor
Assay: MMAE release from conjugates in HT1080.hPSMA tumor model (comparison and timepoint study)
Format: in vivo, mice
Conditions: 24 hours after intravenous injection, 250 nmol/kg, n=3
Method: HT1080.hPSMA tumor cells were grown to 90% confluence and detached with Trypsin-EDTA 0.05%. Cells were resuspended in Hank's Balanced Salt Solution (HBSS) at a density of 5×10^7 cells/mL. 100 μL of HT1080.hPSMA cells (5×10^6 cells) were injected subcutaneously in the right flank of female athymic Balb/c AnNRj-Foxn1 mice (6 to 8 weeks of age). Tumors were grown until ˜250 mm^3 volume (average).
Comparison study: 0.1 mL of 50 μM solutions (2% DMSO, PBS, 250 nmol/kg) of the four conjugates (1 to 4) were injected intravenously. The animals were sacrificed in groups of 3 after 24 h, and blood and the following organs were extracted: HT1080.hPSMA tumor, heart, lungs, liver, kidney, spleen, stomach. The blood fraction was centrifuged, and the plasma (supernatant) was extracted. The organs were stored at −80° C. before being used for further analysis. […]
Frozen plasma (50 μL) and mouse tissues (˜50 mg) were thawed, and 500 μL of PBS was added. […] Peak areas of analytes and internal standards were integrated, and corresponding ratios were calculated. The ratios were then transformed into pmol/g of wet tissue using single-concentration external calibration points and corrected by the total weight of the sample analysed. The percentage of injected dose per gram (% ID/g) was finally calculated by normalizing the value based on the total dose injected into the mouse. […]

Row | Compound | MMAE release in tumor [% ID/g]
1 | CC[C@H](C)[C@@H]([C@@H](CC(=O)N1CCC[C@H]1[C@H](OC)[C@@H](C)C(=O)N[C@H](C)[C@@H](O)c1ccccc1)OC)N(C)C(=O)[C@@H](NC(=O)[C@H](C(C)C)N(C)C(=O)CCCCCN1C(=O)CC(SC[C@H](N)C(=O)NCCCCCC(=O)NC[C@H]2CC[C@H](C(=O)N[C@@H](Cc3ccc4ccccc4c3)C(=O)NCCCC[C@H](NC(=O)N[C@@H](CCC(=O)O)C(=O)O)C(=O)O)CC2)C1=O)C(C)C (some centres unmarked) [Conjugate 4] | < 0.3
2 | CC[C@H](C)[C@@H]([C@@H](CC(=O)N1CCC[C@H]1[C@H](OC)[C@@H](C)C(=O)N[C@H](C)[C@@H](O)c1ccccc1)OC)N(C)C(=O)[C@@H](NC(=O)[C@H](C(C)C)N(C)C(=O)OCCSSC[C@H](N)C(=O)NCCCCCC(=O)NC[C@H]1CC[C@H](C(=O)N[C@@H](Cc2ccc3ccccc3c2)C(=O)NCCCC[C@H](NC(=O)N[C@@H](CCC(=O)O)C(=O)O)C(=O)O)CC1)C(C)C [Conjugate 3] | < 0.3
